Measured data: PubChem BioAssay AID652243 (Drosophila RNAi Screening Center, 2013)

Aim: 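Knock-downs that decrease or increase androgen receptor reporter signal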 (primary screen)
System: Drosophila S2R+ cells
Reagent: long dsRNA against Drosophila genes
Time to read-out: 72 h (48 h, then 24 h hormone)
Treatment: synthetic androgen R1881 at 10 nM for 24 h
Read-out: 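Per-well raw luminescence of the androgen-driven firefly reporter and of the Renilla control, two replicates each, without normalisation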
Scale: firefly reporter light: higher = more light from androgen-responsive reporter; Renilla control light: higher = more constitutive control signal (cell number, transfection)
Active means: 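Across duplicate plates, a knock-down whose log firefly/Renilla ratio shifted a set fold down or up from the GFP/LacZ control mean was a hit; the downward cut appears as both 1.5 and 3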
Calls: active = hit: reporter lowered or raised; inactive = no hit
The deposit covers about 24,000 reagents; shown is an unselected part of those with a known target gene and a result. Of all reagents, 246 (1%) got an active call. 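Plates not normalised; calls are printed but the firefly/Renilla ratio behind them is not deposited; fold cut for lowering reported inconsistently.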 The raw values are shown without normalisation. Not stated in the record: the amount of reagent.

{"target gene":"CG34041","DRSC id":"DRSC22276","firefly reporter light, replicate 1":9.11e5,"firefly reporter light, replicate 2":7.67e5,"Renilla control light, replicate 1":2.79e6,"Renilla control light, replicate 2":2.69e6,"outcome":"inactive"}
{"target gene":"CG34041","DRSC id":"DRSC30023","firefly reporter light, replicate 1":5.44e5,"firefly reporter light, replicate 2":6.36e5,"Renilla control light, replicate 1":1.50e6,"Renilla control light, replicate 2":1.70e6,"outcome":"inactive"}
{"target gene":"Gas41","DRSC id":"DRSC03156","firefly reporter light, replicate 1":7.34e5,"firefly reporter light, replicate 2":5.46e5,"Renilla control light, replicate 1":1.48e6,"Renilla control light, replicate 2":1.24e6,"outcome":"inactive"}
{"target gene":"Aos1 (Activator of SUMO 1)","DRSC id":"DRSC14113","firefly reporter light, replicate 1":65327,"firefly reporter light, replicate 2":1.15e5,"Renilla control light, replicate 1":1.28e6,"Renilla control light, replicate 2":1.54e6,"outcome":"inactive"}
{"target gene":"Aos1 (Activator of SUMO 1)","DRSC id":"DRSC29634","firefly reporter light, replicate 1":5.01e5,"firefly reporter light, replicate 2":5.31e5,"Renilla control light, replicate 1":8.46e5,"Renilla control light, replicate 2":8.46e5,"outcome":"inactive"}
{"target gene":"CG42809","DRSC id":"DRSC02532","firefly reporter light, replicate 1":2.55e5,"firefly reporter light, replicate 2":3.02e5,"Renilla control light, replicate 1":1.49e6,"Renilla control light, replicate 2":1.85e6,"outcome":"inactive"}
{"target gene":"nonC (no-on-and-no-off transient C)","DRSC id":"DRSC18366","firefly reporter light, replicate 1":81623,"firefly reporter light, replicate 2":26844,"Renilla control light, replicate 1":3.55e5,"Renilla control light, replicate 2":3.27e5,"outcome":"inactive"}
{"target gene":"nonC (no-on-and-no-off transient C)","DRSC id":"DRSC18367","firefly reporter light, replicate 1":3.02e5,"firefly reporter light, replicate 2":2.84e5,"Renilla control light, replicate 1":2.62e6,"Renilla control light, replicate 2":2.18e6,"outcome":"inactive"}
{"target gene":"nonC (no-on-and-no-off transient C)","DRSC id":"DRSC37080","outcome":"inactive"}
{"target gene":"CG10035","DRSC id":"DRSC14177","firefly reporter light, replicate 1":2.13e5,"firefly reporter light, replicate 2":2.46e5,"Renilla control light, replicate 1":2.75e6,"Renilla control light, replicate 2":2.76e6,"outcome":"inactive"}
{"target gene":"CG10035","DRSC id":"DRSC28663","firefly reporter light, replicate 1":7.40e5,"firefly reporter light, replicate 2":6.47e5,"Renilla control light, replicate 1":1.23e6,"Renilla control light, replicate 2":1.40e6,"outcome":"inactive"}
{"target gene":"CG2955","DRSC id":"DRSC00552","firefly reporter light, replicate 1":6.94e5,"firefly reporter light, replicate 2":8.55e5,"Renilla control light, replicate 1":1.98e6,"Renilla control light, replicate 2":1.80e6,"outcome":"inactive"}
{"target gene":"CG32191","DRSC id":"DRSC10522","firefly reporter light, replicate 1":1.40e5,"firefly reporter light, replicate 2":1.27e5,"Renilla control light, replicate 1":2.10e6,"Renilla control light, replicate 2":2.27e6,"outcome":"inactive"}
{"target gene":"Jon25Biii (Jonah 25Biii)","DRSC id":"DRSC03115","firefly reporter light, replicate 1":1.42e5,"firefly reporter light, replicate 2":76803,"Renilla control light, replicate 1":2.23e6,"Renilla control light, replicate 2":1.22e6,"outcome":"inactive"}
{"target gene":"Jon25Biii (Jonah 25Biii)","DRSC id":"DRSC25069","firefly reporter light, replicate 1":7.85e5,"firefly reporter light, replicate 2":5.53e5,"Renilla control light, replicate 1":6.54e5,"Renilla control light, replicate 2":6.10e5,"outcome":"inactive"}
{"target gene":"plu (plutonium)","DRSC id":"DRSC07665","firefly reporter light, replicate 1":58292,"firefly reporter light, replicate 2":98880,"Renilla control light, replicate 1":1.00e6,"Renilla control light, replicate 2":1.11e6,"outcome":"inactive"}
{"target gene":"dgt4 (dim gamma-tubulin 4)","DRSC id":"DRSC18659","firefly reporter light, replicate 1":3.55e5,"firefly reporter light, replicate 2":3.60e5,"Renilla control light, replicate 1":4.91e6,"Renilla control light, replicate 2":2.93e6,"outcome":"inactive"}
{"target gene":"dgt4 (dim gamma-tubulin 4)","DRSC id":"DRSC28573","firefly reporter light, replicate 1":5.09e5,"firefly reporter light, replicate 2":5.64e5,"Renilla control light, replicate 1":9.54e5,"Renilla control light, replicate 2":1.33e6,"outcome":"inactive"}
{"target gene":"by (blistery)","DRSC id":"DRSC16482","firefly reporter light, replicate 1":1.61e5,"firefly reporter light, replicate 2":1.66e5,"Renilla control light, replicate 1":3.27e6,"Renilla control light, replicate 2":3.09e6,"outcome":"inactive"}
{"target gene":"by (blistery)","DRSC id":"DRSC28644","firefly reporter light, replicate 1":4.86e5,"firefly reporter light, replicate 2":4.18e5,"Renilla control light, replicate 1":1.37e6,"Renilla control light, replicate 2":1.52e6,"outcome":"inactive"}
{"target gene":"pds5","DRSC id":"DRSC06670","firefly reporter light, replicate 1":8.38e5,"firefly reporter light, replicate 2":8.33e5,"Renilla control light, replicate 1":1.46e6,"Renilla control light, replicate 2":1.30e6,"outcome":"inactive"}

A few values from above.
Under “firefly reporter light, replicate 1”, plu (plutonium) [DRSC07665] has 58292
Result of nonC (no-on-and-no-off transient C) [DRSC37080] under “outcome”: inactive
